Data reported in publication PMC7862700.
Only a part is listed here, and it is no random draw. At the low end of the ranking the order means little.

The sequences below were run against T1, ELK1 (UniProt P19419) (assay: DAPPL (digital affinity profiling via proximity ligation, sequencing)). Conditions: 10 mM Tris-HCl pH 7.5, 50 mM NaCl, 1 mM DTT, 4% glycerol, room temperature, 30 min; GST-TFs on glutathione beads, 16-mer random dsDNA library, 0.1% …; high values mean tight binding; double strand, one strand shown; scale: fold enrichment (6-mer frequency, TF over GST control).
T1 sequence: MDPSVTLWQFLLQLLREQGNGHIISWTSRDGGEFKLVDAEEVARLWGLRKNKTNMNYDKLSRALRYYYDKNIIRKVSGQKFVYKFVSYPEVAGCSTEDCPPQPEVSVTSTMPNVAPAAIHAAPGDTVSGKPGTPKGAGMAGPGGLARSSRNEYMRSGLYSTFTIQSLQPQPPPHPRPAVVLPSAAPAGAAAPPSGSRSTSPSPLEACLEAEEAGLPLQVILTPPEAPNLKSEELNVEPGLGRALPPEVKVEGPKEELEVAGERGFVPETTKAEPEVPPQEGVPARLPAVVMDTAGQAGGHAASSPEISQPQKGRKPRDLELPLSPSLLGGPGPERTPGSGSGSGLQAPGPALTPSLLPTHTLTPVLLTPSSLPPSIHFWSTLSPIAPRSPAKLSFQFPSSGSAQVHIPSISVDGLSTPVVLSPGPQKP

Row | Sequence | binding signal
1 | ATGCCG | 1.13
2 | CAATTC | 1.27
3 | TTTTGG | 1.42
4 | ACTAGG | 1.1
5 | CGGATG | 1.66
6 | TGGATA | 1.05
7 | TTGTAA | 1.3
8 | TTCAGG | 1.14
9 | GCTGCA | 1.07
10 | TGTCAT | 1.08
11 | CTTGCG | 1.42
12 | AGACTT | 1.04
13 | ATCGTT | 0.868
14 | CGGAAC | 1.18
15 | CTGTCT | 1.3
16 | GCTTAA | 0.976
17 | TCATTA | 0.975
18 | CGCTGG | 0.987
19 | TCACTA | 1.22
20 | CTATGT | 1.11

Row | Sequence | binding signal
21 | CGGCTG | 0.947
22 | GCAACC | 1.07
23 | CCCGGT | 0.994
24 | CATATG | 0.987
25 | CCCCTC | 1.29
26 | TCCGGT | 3.83
27 | TCTATG | 1.2
28 | TTTAAG | 1.33
29 | GGTTAT | 0.997
30 | TTGCTG | 1.13
31 | GCTAGT | 0.999
32 | CAACCC | 1.22
33 | TGCGCA | 1.07
34 | TGAATA | 1.11
35 | TGTGCC | 1.2
36 | GATTCG | 0.974
37 | ATTTGC | 1.36
38 | GCTGTT | 1.07
39 | CTGTTG | 1.02
40 | TAAGCG | 0.987

What follows are sequences tested against T2, ELK3 (UniProt P41970) in the same assay as above. Conditions: 10 mM Tris-HCl pH 7.5, 50 mM NaCl, 1 mM DTT, 4% glycerol, room temperature, 30 min; GST-TFs on glutathione beads, 16-mer random dsDNA library, 0.1% …; high values mean tight binding; double strand, one strand shown; scale: fold enrichment (6-mer frequency, TF over GST control).
T2 sequence: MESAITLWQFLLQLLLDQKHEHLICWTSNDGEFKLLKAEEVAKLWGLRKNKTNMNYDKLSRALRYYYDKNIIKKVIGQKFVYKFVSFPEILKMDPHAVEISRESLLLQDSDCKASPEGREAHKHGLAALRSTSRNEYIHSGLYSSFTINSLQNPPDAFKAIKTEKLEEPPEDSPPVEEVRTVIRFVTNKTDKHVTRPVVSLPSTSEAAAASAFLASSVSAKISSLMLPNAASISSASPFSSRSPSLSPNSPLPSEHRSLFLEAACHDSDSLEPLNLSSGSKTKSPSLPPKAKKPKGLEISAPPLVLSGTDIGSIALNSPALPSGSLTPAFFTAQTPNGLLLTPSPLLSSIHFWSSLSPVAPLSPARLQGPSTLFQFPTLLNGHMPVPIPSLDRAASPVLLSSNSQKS

Row | Sequence | binding signal
41 | ATGCCG | 1.07
42 | CAATTC | 1.2
43 | TTTTGG | 1.31
44 | ACTAGG | 0.994
45 | CGGATG | 1.6
46 | TGGATA | 0.961
47 | TTGTAA | 1.08
48 | TTCAGG | 1.09
49 | GCTGCA | 0.886
50 | TGTCAT | 1.04
51 | CTTGCG | 1.44
52 | AGACTT | 0.99
53 | ATCGTT | 0.919
54 | CGGAAC | 1.21
55 | CTGTCT | 1.62
56 | GCTTAA | 0.949
57 | TCATTA | 0.924
58 | CGCTGG | 0.938
59 | TCACTA | 0.999
60 | CTATGT | 0.958

Row | Sequence | binding signal
61 | CGGCTG | 0.73
62 | GCAACC | 1.09
63 | CCCGGT | 0.921
64 | CATATG | 1.04
65 | CCCCTC | 1.37
66 | TCCGGT | 4.4
67 | TCTATG | 0.896
68 | TTTAAG | 1.46
69 | GGTTAT | 1.07
70 | TTGCTG | 1.33
71 | GCTAGT | 1.11
72 | CAACCC | 1.21
73 | TGCGCA | 0.967
74 | TGAATA | 1.06
75 | TGTGCC | 1.3
76 | GATTCG | 0.728
77 | ATTTGC | 1.2
78 | GCTGTT | 1.04
79 | CTGTTG | 0.998
80 | TAAGCG | 1.01

What follows are sequences tested against T3, ETV3 (UniProt P41162-2) in the same assay as above. Conditions: 10 mM Tris-HCl pH 7.5, 50 mM NaCl, 1 mM DTT, 4% glycerol, room temperature, 30 min; GST-TFs on glutathione beads, 16-mer random dsDNA library, 0.1% …; high values mean tight binding; double strand, one strand shown; scale: fold enrichment (6-mer frequency, TF over GST control).
T3 sequence: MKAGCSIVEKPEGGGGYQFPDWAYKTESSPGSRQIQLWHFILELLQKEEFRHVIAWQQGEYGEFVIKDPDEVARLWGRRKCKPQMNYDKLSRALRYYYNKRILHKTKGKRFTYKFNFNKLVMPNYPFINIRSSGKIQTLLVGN

Row | Sequence | binding signal
81 | GCTGCA | 0.972
82 | CGCTGG | 1.12
83 | GGTTAT | 1.05
84 | GCTAGT | 0.981
